Results are given in words; binding and its absence hold for the method and conditions named. In cells and extracts the contact can be indirect. Some results given as binding are weak or reduced against the parent protein; the word gives no strength. Tags and fused reporters may be left off the sequences shown.
Biological target: T1, Bcl-2 antagonist killer 1 (BAK) (human (endogenous in NPC cells)), Q16611
T1 chain: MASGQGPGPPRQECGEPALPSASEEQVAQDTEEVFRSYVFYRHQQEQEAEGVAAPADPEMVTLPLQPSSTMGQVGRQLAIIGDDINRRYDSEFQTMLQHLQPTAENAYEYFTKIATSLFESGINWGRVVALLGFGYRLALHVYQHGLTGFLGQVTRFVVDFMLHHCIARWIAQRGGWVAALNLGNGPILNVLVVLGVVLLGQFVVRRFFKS
Assay: cross-linking; NPC cells treated with NGN or transfected with let-7g mimic; 5 mM bismaleimidohexane (BMH)-treated cells fractionated into mitochondrial and ER/microsomal fractions, 10% SDS-PAGE, probed with specific antibodies
Settings: remark: other sources report otherwise

B1: Bcl-2 antagonist killer 1 (BAK), Q16611 1-211 (protein)
chain: T1 chain
binding: binds
